Taken from: PubChem BioAssay AID1259254 (NCATS, 2017)

Screen: 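Genome-wide screen for genes that prevent DNA re-replication in cancer cells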 (primary screen)
Cell system: human HCT116 colorectal cancer cells
Reagents: single siRNA against human genes
Time to read-out: 3 days
Detection: 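Nuclei stained with Hoechst and imaged; cell-cycle phase assigned by DNA content; G2 share scaled per plate, non-targeting siRNA 0%, GMNN siRNA 100%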
Direction: G2 robust z-score and G2 cells, % of GMNN control: higher = more G2 cells, more excess DNA replication; raw share of cells in G2: higher = larger share of cells with G2 DNA content
Hit rule: 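An siRNA counts as active if its G2 robust z-score lies at least 5 MADs above the screen median; here such calls match roughly 38% of GMNN control or more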
In all, the deposit lists about 59,000 reagents; shown is a part drawn at random. About 1,550 of all reagents (2.6%) were called active. 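G2 share is only a proxy for re-replication; each gene was hit by three separate siRNAs, and active genes were retested.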 The raw values are shown without normalisation. A number with no mark means an inactive call. The numbers tell different reagents against one gene apart. No sequences are given here. The record does not give: the amount of reagent.

G2 robust z-score,"G2 cells, % of GMNN control",raw share of cells in G2 (%),target,siRNA no.
-0.951,-3.72,2.59,PSIP1,1
1.75,15.3,12.5,PSIP1,2
0.695,7.86,6.78,PSIP1,3
2.19,18.3,10.2,USF3,1
0.0499,3.32,4.27,USF3,2
-0.819,-2.79,2.3,USF3,3
0.0169,3.09,4.04,NFIA-AS1,1
2.07,17.6,10.3,NFIA-AS1,2
0.51,6.55,5.63,NFIA-AS1,3
3.99,31,14.9,MTMR4,1
-0.969,-3.85,3.14,MTMR4,2
4.19,32.5,13.3,MTMR4,3
-0.771,-2.45,3.51,CORO7,1
0.239,4.65,6.69,CORO7,2
-0.668,-1.73,2.24,CORO7,3
-1.22,-5.59,1.57,TCAF2,1
-0.477,-0.388,3.5,TCAF2,2
-0.728,-2.15,2.21,TCAF2,3
0.11,3.74,4.24,SNCA-AS1,1
0.695,7.86,6.63,SNCA-AS1,2
0.811,8.67,6.39,SNCA-AS1,3
2.18,18.3,10.2,PLCL1,1
-0.649,-1.6,4.43,PLCL1,2
-0.0373,2.71,5.71,PLCL1,3
-0.297,0.877,3.25,ADM5,1
-0.477,-0.387,2.64,ADM5,2
-0.75,-2.31,2.77,ADM5,3
-0.72,-2.1,1.82,SLC66A3,1
1.4,12.8,9,SLC66A3,2
-0.421,0.00316,3.1,SLC66A3,3
0.549,6.83,6.98,CFAP74,1
0.201,4.38,4.37,CFAP74,2
-0.12,2.12,3.6,CFAP74,3
-0.779,-2.51,3.12,CFAP74,4
-0.376,0.324,3.4,CFAP74,5
-1,-4.07,2.55,CFAP74,6
-0.508,-0.608,4.18,ELP5,1
-0.176,1.73,4.69,ELP5,2
-0.486,-0.454,3.14,ELP5,3
1.96,16.8,11.4,ABHD5,1
0.199,4.37,6.45,ABHD5,2
0.0901,3.6,5.25,ABHD5,3
-0.0916,2.32,5.75,LOC401957,1
-0.554,-0.933,3.47,LOC401957,2
0.854,8.97,7.08,LOC401957,3
-0.284,0.969,5.74,LRP2,1
-0.316,0.747,5.77,LRP2,2
-1.09,-4.68,1.65,LRP2,3
-0.142,1.97,5.81,PCOLCE,1
-1.38,-6.77,1.55,PCOLCE,2
-0.738,-2.23,2.55,PCOLCE,3
-0.143,1.96,4.88,GLB1L3,1
-0.807,-2.71,2.52,GLB1L3,2
0.879,9.15,4.49,GLB1L3,3
2.77,22.4,16.3,MOB4,1
3.71,29,13.8,MOB4,2
0.726,8.08,6.63,MOB4,3
0.38,5.64,6.63,PTPN3,1
0.215,4.48,5.65,PTPN3,2
0.674,7.71,5.82,PTPN3,3
0.926,9.49,8.24,RBP3,1
1.1,10.7,8.77,RBP3,2
3.08,24.7,12.3,RBP3,3
2.1,17.7,13.1,ZKSCAN8,1
1.75,15.3,9.51,ZKSCAN8,2
0.521,6.64,6.73,ZKSCAN8,3
0.116,3.78,5.29,TAS2R60,1
0.301,5.09,5.48,TAS2R60,2
3.88,30.3,16.4,TAS2R60,3

Copied from the entries so far (9 entries):
G2 robust z-score,"G2 cells, % of GMNN control",raw share of cells in G2 (%),target,siRNA no.
-0.284,0.969,5.74,LRP2,1
-0.316,0.747,5.77,LRP2,2
-1.09,-4.68,1.65,LRP2,3
-0.142,1.97,5.81,PCOLCE,1
-1.38,-6.77,1.55,PCOLCE,2
-0.738,-2.23,2.55,PCOLCE,3
-0.143,1.96,4.88,GLB1L3,1
-0.807,-2.71,2.52,GLB1L3,2
0.879,9.15,4.49,GLB1L3,3
